Laboratory results: PubChem BioAssay AID652243 (Drosophila RNAi Screening Center, 2013)
The screen tested about 24,000 reagents; shown is an unselected part of those that have a named target and a result. In the full data, 246 (1%) were called active. 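Plates not normalised; calls are printed but the firefly/Renilla ratio behind them is not deposited; fold cut for lowering reported inconsistently.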 Raw values are not corrected between plates. Names joined by + are all predicted targets of the reagent. The record does not give: the amount of reagent.

Aim: 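Fly genes required for human androgen receptor driven transcription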 (primary screen)
System: Drosophila S2R+ cells
Knock-down reagent: long dsRNA against Drosophila genes
Timing: 72 h (48 h, then 24 h hormone)
Treatment: synthetic androgen R1881 at 10 nM for 24 h
Measured: 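Firefly light from an androgen-responsive reporter and Renilla control light per well, raw and unnormalised, for each of two replicates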
Reading the numbers: firefly reporter light: higher = more light from androgen-responsive reporter; Renilla control light: higher = more constitutive control signal (cell number, transfection)
Rule for the call: 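Across duplicate plates, a knock-down whose log firefly/Renilla ratio shifted a set fold down or up from the GFP/LacZ control mean was a hit; the downward cut appears as both 1.5 and 3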
Meaning of the calls: active = hit: reporter lowered or raised; inactive = no hit

Target gene,amplicon,"firefly reporter light, replicate 1","firefly reporter light, replicate 2","Renilla control light, replicate 1","Renilla control light, replicate 2",outcome
RanGAP (Ran GTPase activating protein),DRSC22003,7.76e5,6.91e5,3.61e5,2.55e5,inactive
RanGAP (Ran GTPase activating protein),DRSC29400,4.64e5,5.13e5,1.05e6,1.05e6,inactive
CG11384,DRSC18628,1.75e5,1.46e5,2.91e6,2.23e6,inactive
CG15143,DRSC02444,1.70e5,1.70e5,1.85e6,2.01e6,inactive
CG9812,DRSC04566,3.29e5,3.42e5,2.06e6,1.79e6,inactive
Pfdn2 (Prefoldin 2),DRSC10618,2.39e5,2.07e5,2.32e6,2.27e6,inactive
CG3548,DRSC04387,7.29e5,7.72e5,1.65e6,1.79e6,inactive
CG3548,DRSC29938,5.73e5,4.45e5,1.20e6,1.34e6,inactive
CG32832,DRSC01562,1.64e5,1.98e5,5.31e5,6.19e5,inactive
CG16890,DRSC01890,1.23e6,1.04e6,1.90e6,1.70e6,inactive
CG16890,DRSC29892,2.43e5,3.80e5,8.20e5,1.08e6,inactive
Alms1a (Alstrom syndrome 1a),DRSC18558,1.35e5,2.41e5,1.97e6,2.49e6,inactive
VGlut (Vesicular glutamate transporter),DRSC00733,4.08e5,3.70e5,2.30e6,1.40e6,inactive
VGlut (Vesicular glutamate transporter),DRSC21821,6.24e5,5.45e5,3.34e6,2.91e6,inactive
CG11127,DRSC06043,1.16e6,5.34e5,1.62e6,1.59e6,inactive
Agpat1 (1-Acylglycerol-3-phosphate O-acyltransferase 1),DRSC19879,1.77e5,1.45e5,2.48e6,2.61e6,active
Agpat1 (1-Acylglycerol-3-phosphate O-acyltransferase 1),DRSC19880,4.52e5,5.40e5,4.23e6,4.30e6,inactive
CG32196,DRSC09548,2.77e5,2.51e5,7.10e5,6.22e5,inactive
wus (wurst),DRSC20278,65326,81382,5.70e5,4.94e5,inactive
CG13972,DRSC14715,2.14e5,2.00e5,1.92e6,2.68e6,inactive
CG13972,DRSC26881,3.26e5,3.48e5,4.00e5,8.13e5,inactive

The list goes on, starting with the last 5 of the part before.
Target gene,amplicon,"firefly reporter light, replicate 1","firefly reporter light, replicate 2","Renilla control light, replicate 1","Renilla control light, replicate 2",outcome
Agpat1 (1-Acylglycerol-3-phosphate O-acyltransferase 1),DRSC19880,4.52e5,5.40e5,4.23e6,4.30e6,inactive
CG32196,DRSC09548,2.77e5,2.51e5,7.10e5,6.22e5,inactive
wus (wurst),DRSC20278,65326,81382,5.70e5,4.94e5,inactive
CG13972,DRSC14715,2.14e5,2.00e5,1.92e6,2.68e6,inactive
CG13972,DRSC26881,3.26e5,3.48e5,4.00e5,8.13e5,inactive
Wdr33 (WD repeat domain 33),DRSC12162,64649,78523,7.25e5,6.18e5,inactive
Wdr33 (WD repeat domain 33),DRSC27065,2.73e5,2.32e5,6.01e5,4.44e5,inactive
Inx6 (Innexin 6),DRSC20579,2.61e5,1.11e5,7.42e5,2.94e5,inactive
Inx6 (Innexin 6),DRSC26299,3.63e5,3.38e5,9.49e5,6.85e5,inactive
CG17134,DRSC02583,1.38e5,1.72e5,1.55e6,1.57e6,inactive
CG32599,DRSC19433,42187,49224,4.01e5,3.94e5,inactive
CG32599,DRSC26978,3.16e5,2.56e5,8.26e5,5.10e5,inactive
CG15740,DRSC23079,4.87e5,5.57e5,1.48e6,1.54e6,inactive
CG15740,DRSC28880,3.68e5,4.15e5,1.57e6,1.65e6,inactive
CG15740,DRSC38996,7.66e5,7.57e5,1.69e6,1.93e6,inactive
Cbp53E (Calbindin 53E),DRSC07356,1.19e6,8.06e5,1.52e6,9.94e5,inactive
Cbp53E (Calbindin 53E),DRSC24679,9.85e5,6.95e5,8.92e5,1.04e6,inactive
Cbp53E (Calbindin 53E),DRSC38954,8.50e5,6.96e5,1.42e6,1.57e6,inactive
Prosalpha5 (Proteasome alpha5 subunit),DRSC07514,6.06e5,1.26e6,1.47e6,1.98e6,inactive
CG14770,DRSC17947,2.98e5,2.86e5,4.10e6,3.02e6,inactive
CG9368,DRSC11067,36015,51833,5.96e5,4.74e5,inactive
CG9368,DRSC24280,1.17e6,9.88e5,1.40e6,1.10e6,inactive
Gnmt (Glycine N-methyltransferase),DRSC15987,1.14e5,98738,1.60e6,1.50e6,inactive
CG14221,DRSC19578,47541,87149,1.78e5,1.53e5,inactive
Ku80,DRSC02699,1.21e5,1.49e5,1.37e6,1.27e6,inactive
Ku80,DRSC26861,4.29e5,3.54e5,6.75e5,5.90e5,inactive
CG17528,DRSC07761,1.09e5,1.09e5,1.35e6,9.48e5,inactive
CG17528,DRSC36855,,,,,inactive
CG17528,DRSC36856,,,,,inactive
CG14907 + Mettl4,DRSC15026,1.11e5,98330,1.94e6,1.73e6,inactive
CG14907 + Mettl4,DRSC15027,1.56e5,1.55e5,2.72e6,2.84e6,inactive
Tmhs (Tetraspan membrane protein in hair cell stereocilia),DRSC08231,1.12e6,7.98e5,2.40e6,1.63e6,inactive
Hsc70-4 (Heat shock protein 70 cognate 4),DRSC16711,2.38e5,1.45e5,1.69e6,1.61e6,inactive
Hsc70-4 (Heat shock protein 70 cognate 4),DRSC29729,3.75e5,3.13e5,1.26e6,1.16e6,inactive
CG14464,DRSC07760,60248,1.28e5,8.33e5,9.69e5,inactive
CG13639,DRSC14638,2.44e5,2.48e5,2.18e6,2.01e6,inactive
CG8142,DRSC20086,1.39e5,1.64e5,9.95e5,1.06e6,inactive
CG8142,DRSC26373,3.58e5,4.42e5,8.22e5,7.56e5,inactive
CG31510,DRSC14182,1.41e5,1.98e5,2.01e6,2.48e6,inactive
CG12617,DRSC02176,1.85e5,1.43e5,2.03e6,2.00e6,inactive
CG12617,DRSC28197,4.19e5,3.34e5,1.41e6,1.07e6,inactive
CG3349,DRSC10359,1.66e5,1.97e5,1.43e6,2.09e6,inactive
